# Source: PMC5996148
# “And” between values parts separate entries of the source, which are not always exact repeats. Equal entries are not always repeated. The list shows a part of the results. For some assays here: Construct or isoform of the protein are uncertain.
# Key:
# Test in all cases: protein microarray (ProtoArray v5.0), streptavidin-Alexa Fluor 647
# Conditions in all cases: 3'-biotin; 20 mM Tris (pH 7.5), 5 mM MgCl2, 100 mM KCl, 0.1% Tween-20, A/T-rich and random oligonucleotide blockers; temperature not stated; high values mean tight binding
# [1] = test system: ADPRHL1 (human)
# [2] = target: ADRB2 (UniProt P07550)
# [3] = test system: ADRM1 (human)
# [4] = test system: AFG3L1 (human)
# [5] = test system: AHCY (human)
# [6] = test system: AHSG (human)
# [7] = test system: AIF1 (human)
# [8] = test system: AK3 (human)
# [9] = test system: AK3L1 (human)
# [10] = test system: AKR1B10 (human)
# [11] = test system: AKR1C1 (human)
# [12] = test system: ALB (human)
# [13] = test system: ALDH3A1 (human)
# [14] = test system: ALDOC (human)
# [15] = test system: ALG13 (human)
# [16] = test system: ALOX15 (human)
# [17] = test system: ALOX15B (human)
# [18] = test system: ALOX5 (human)
# [19] = test system: ALOX5AP (human)
# [20] = test system: ALS2CL (human)
sequence,measurement,setting,value
GGTGACAGGGGTATGGGGAGGGG [G4-2 biotinylated (Ct1)],binding signal,[1],-0.389 z-score
same,binding signal,[2],-0.372 z-score
same,binding signal,[3],-0.396 z-score
same,binding signal,[4],-0.388 z-score
same,binding signal,[5],-0.373 z-score
same,binding signal,[6],-0.364 z-score
same,binding signal,[7],-0.401 z-score and -0.372 z-score
same,binding signal,[8],-0.376 z-score
same,binding signal,[9],-0.382 z-score
same,binding signal,[10],-0.371 z-score
same,binding signal,[11],-0.391 z-score
same,binding signal,[12],-0.373 z-score and -0.395 z-score
same,binding signal,[13],-0.376 z-score
same,binding signal,[14],-0.373 z-score
same,binding signal,[15],-0.382 z-score
same,binding signal,[16],-0.372 z-score
same,binding signal,[17],-0.396 z-score
same,binding signal,[18],-0.386 z-score
same,binding signal,[19],-0.369 z-score
same,binding signal,[20],-0.363 z-score

# Looked up one by one from the entries so far:
sequence,measurement,setting,value
GGTGACAGGGGTATGGGGAGGGG [G4-2 biotinylated (Ct1)],binding signal,[16],-0.372 z-score
same,binding signal,[14],-0.373 z-score
